From PMC7018950
These are yes or no findings as the source states them, for the method shown. For some assays here: In cells and extracts the contact can be indirect. Some binding calls cover weakened binding; strength is not graded here. Tags and fused reporters may be left off the sequences shown.

T1: AtCHS (GAL4 two-hybrid fusion) (Arabidopsis thaliana) (UniProt P13114)
T1 sequence: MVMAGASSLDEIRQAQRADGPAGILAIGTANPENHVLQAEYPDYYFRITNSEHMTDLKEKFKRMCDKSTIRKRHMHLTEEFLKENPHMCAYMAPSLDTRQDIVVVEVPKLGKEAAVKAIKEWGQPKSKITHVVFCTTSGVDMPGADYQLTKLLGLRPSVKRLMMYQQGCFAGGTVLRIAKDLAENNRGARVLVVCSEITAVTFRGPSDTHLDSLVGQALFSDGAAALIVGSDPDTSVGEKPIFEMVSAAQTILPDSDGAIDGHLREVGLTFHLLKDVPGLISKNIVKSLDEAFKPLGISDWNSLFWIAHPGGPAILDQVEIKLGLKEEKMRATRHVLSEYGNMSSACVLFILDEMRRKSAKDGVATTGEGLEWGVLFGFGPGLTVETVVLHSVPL

T2: AtCHS (BiFC fusion) (Arabidopsis thaliana) (UniProt P13114)
T2 sequence: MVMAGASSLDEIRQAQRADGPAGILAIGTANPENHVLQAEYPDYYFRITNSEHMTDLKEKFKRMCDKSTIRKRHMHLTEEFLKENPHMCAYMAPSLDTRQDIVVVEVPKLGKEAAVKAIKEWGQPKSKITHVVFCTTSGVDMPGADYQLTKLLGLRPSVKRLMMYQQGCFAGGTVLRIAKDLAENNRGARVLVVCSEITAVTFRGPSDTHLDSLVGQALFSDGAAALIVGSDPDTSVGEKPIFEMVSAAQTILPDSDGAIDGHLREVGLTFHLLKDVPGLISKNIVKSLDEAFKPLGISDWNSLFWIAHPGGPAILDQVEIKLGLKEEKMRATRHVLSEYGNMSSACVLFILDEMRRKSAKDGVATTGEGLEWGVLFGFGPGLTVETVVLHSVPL


Key:
[1] = target: T1, AtCHS (GAL4 two-hybrid fusion) (Arabidopsis thaliana); assay: two-hybrid; GAL4-based (Matchmaker Gold), S. cerevisiae Y2H Gold; fusions with the GAL4 activation and DNA-binding domains; growth on -WL, -WLH and -WLHAde
[2] = target: T2, AtCHS (BiFC fusion) (Arabidopsis thaliana); assay: split reporter; BiFC in Nicotiana benthamiana leaf cells; NmVen210 and CVen210 fusions from pDOE-05, agroinfiltration, 25 °C for 2 days, confocal microscopy

Row | Binder | binding [1] | binding [2]
1 | AtCHIL (GAL4 two-hybrid fusion) (protein, UniProt Q8VZW3 1-209) MGTEMVMVHEVPFPPQIITSKPLSLLGQGITDIEIHFLQVKFTAIGVYLDPSDVKTHLDNWKGKTGKELAGDDDFFDALASAEMEKVIRVVVIKEIKGAQYGVQLENTVRDRLAEEDKYEEEEETELEKVVGFFQSKYFKANSVITYHFSAKDGICEIGFETEGKEEEKLKVENANVVGMMQRWYLSGSRGVSPSTIVSIADSISAVLT | binds | 
2 | AtCHIL (BiFC fusion) (protein, UniProt Q8VZW3 5-209) MVMVHEVPFPPQIITSKPLSLLGQGITDIEIHFLQVKFTAIGVYLDPSDVKTHLDNWKGKTGKELAGDDDFFDALASAEMEKVIRVVVIKEIKGAQYGVQLENTVRDRLAEEDKYEEEEETELEKVVGFFQSKYFKANSVITYHFSAKDGICEIGFETEGKEEEKLKVENANVVGMMQRWYLSGSRGVSPSTIVSIADSISAVLT |  | binds
